Laboratory results: doi:10.1101/2020.07.04.184861
Results are given in words; binding and its absence hold for the method and conditions named. Binding seen in cells or lysates may run through a third protein. Some entries that bind do so weakly or less than the wild type. Tags and fused reporters may be left off the sequences shown.

By UniProt entry, the sequences of proteins in these tests, tags left out.
UniProt Q13838: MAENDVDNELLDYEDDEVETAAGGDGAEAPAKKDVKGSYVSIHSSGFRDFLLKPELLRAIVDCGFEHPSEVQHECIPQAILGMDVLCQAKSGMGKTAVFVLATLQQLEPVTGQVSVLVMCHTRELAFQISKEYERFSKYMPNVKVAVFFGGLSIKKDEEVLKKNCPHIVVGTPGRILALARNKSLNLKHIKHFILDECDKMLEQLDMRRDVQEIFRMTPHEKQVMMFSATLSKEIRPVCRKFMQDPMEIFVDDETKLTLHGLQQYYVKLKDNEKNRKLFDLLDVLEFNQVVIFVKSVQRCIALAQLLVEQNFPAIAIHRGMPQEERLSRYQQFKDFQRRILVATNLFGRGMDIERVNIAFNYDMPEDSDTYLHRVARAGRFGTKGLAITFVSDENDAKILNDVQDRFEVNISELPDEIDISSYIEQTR
UniProt P38919: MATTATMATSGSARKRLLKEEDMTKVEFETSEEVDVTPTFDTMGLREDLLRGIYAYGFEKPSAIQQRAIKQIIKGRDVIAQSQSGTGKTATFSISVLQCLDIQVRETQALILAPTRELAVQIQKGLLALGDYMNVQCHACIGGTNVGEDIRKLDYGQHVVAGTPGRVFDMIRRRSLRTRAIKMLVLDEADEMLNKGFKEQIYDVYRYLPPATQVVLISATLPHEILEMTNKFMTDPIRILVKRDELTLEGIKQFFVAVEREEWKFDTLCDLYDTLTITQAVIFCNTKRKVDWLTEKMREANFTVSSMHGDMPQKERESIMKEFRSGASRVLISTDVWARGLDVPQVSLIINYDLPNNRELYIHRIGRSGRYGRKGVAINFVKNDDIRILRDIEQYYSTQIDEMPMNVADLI
UniProt P61326: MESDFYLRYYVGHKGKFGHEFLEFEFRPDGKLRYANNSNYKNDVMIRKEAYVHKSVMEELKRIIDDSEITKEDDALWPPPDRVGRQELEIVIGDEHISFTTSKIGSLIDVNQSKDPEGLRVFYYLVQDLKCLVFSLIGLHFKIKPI

What was measured:
[1] = molecular target: T1, LAP-tagged NCBP2 (Nuclear Cap Binding Protein 2) (UniProt P52298); assay: co-IP
T1 sequence: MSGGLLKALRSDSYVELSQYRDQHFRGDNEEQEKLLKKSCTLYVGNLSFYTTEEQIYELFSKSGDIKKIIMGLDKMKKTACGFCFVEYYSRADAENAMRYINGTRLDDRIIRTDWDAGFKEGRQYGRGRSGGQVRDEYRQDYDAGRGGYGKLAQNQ

[2] = molecular target: T2, LAP-tagged NCBP3 (C17orf85) (UniProt Q53F19); assay: co-IP
T2 sequence: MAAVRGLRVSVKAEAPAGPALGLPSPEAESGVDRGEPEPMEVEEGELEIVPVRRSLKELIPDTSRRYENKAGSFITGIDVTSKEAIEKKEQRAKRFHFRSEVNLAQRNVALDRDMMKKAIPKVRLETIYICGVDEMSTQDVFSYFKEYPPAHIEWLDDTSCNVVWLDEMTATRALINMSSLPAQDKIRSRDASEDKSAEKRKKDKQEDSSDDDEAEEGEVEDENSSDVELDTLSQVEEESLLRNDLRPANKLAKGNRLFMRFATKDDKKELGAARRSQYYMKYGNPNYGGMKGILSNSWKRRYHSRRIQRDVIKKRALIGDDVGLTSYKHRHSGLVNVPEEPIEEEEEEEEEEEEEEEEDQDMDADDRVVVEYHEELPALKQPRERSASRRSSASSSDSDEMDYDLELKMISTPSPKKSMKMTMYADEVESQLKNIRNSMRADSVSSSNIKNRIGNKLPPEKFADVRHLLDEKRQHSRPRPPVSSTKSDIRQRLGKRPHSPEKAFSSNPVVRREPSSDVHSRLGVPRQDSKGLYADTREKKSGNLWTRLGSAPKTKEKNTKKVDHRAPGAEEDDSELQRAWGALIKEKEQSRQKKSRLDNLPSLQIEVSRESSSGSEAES

Substance	binding [1]	binding [2]
DDX39B, endogenous (from UniProt Q13838 1-428)	binds	binds
EIF4A3, endogenous (from UniProt P38919 1-411)	binds	
MAGOH, endogenous (from UniProt P61326 1-146)	binds	
